# Measurements as given in paper PMC7370515.
# Sequences of proteins named here, by UniProt entry; tags and fusion partners are left off.
# UniProt P05412: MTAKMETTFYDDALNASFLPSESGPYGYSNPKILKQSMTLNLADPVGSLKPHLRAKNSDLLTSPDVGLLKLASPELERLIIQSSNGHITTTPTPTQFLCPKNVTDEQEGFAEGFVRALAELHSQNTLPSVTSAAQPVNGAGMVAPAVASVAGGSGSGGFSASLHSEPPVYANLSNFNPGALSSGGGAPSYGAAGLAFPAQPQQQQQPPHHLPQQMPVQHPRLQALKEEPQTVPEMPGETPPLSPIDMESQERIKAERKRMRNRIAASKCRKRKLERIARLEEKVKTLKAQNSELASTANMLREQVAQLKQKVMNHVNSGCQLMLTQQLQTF
# UniProt Q8IW41: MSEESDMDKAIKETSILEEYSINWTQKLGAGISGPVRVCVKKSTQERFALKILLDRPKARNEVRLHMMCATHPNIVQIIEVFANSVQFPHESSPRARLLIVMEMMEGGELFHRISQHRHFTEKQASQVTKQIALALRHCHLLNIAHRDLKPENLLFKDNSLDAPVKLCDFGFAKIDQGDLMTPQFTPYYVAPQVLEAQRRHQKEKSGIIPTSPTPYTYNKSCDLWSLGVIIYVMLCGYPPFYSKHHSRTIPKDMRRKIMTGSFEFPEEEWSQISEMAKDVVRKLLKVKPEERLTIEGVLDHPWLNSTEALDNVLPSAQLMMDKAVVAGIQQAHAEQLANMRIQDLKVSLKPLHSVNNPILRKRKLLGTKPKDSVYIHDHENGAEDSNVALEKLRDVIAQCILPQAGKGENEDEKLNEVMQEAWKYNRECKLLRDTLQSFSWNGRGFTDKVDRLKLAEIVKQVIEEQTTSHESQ
# No constants are given. Whether binding was seen depends on the method and setting. In cells and extracts the contact can be indirect. Some results given as binding are weak or reduced against the parent protein; the word gives no strength.
# Target: c-Jun (human) (UniProt P05412)
# Assay: co-IP; HCT116 cell lysates (1000 ug, RIPA lysis buffer with protease/phosphatase inhibitors) rotated overnight with anti-c-Jun, anti-MK5, anti-RBM4, anti-eIF4A1 IgG or rabbit IgG; Protein A/G agarose beads 4 h at 4 °C; washed three times with lysis buffer; western blot
substance,measurement,value
MK5 (MAPK activated protein kinase 5) (from UniProt Q8IW41 1-473),binding,binds
